# Test results taken from PubChem BioAssay AID1273 (Columbia University Molecular Screening Center, 2008).
# The other results are listed elsewhere or left out. Further columns of the screen follow, without active or inactive calls. Most of these compounds were active or inconclusive in the main read-out, so they are no random draw.
# Assay: insulin gene promoter suppression in islet cells – imaging, TRM-6 cells (human fetal islet line), eGFP reporter, cell count, primary screen (AID 1273;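 also: cells exposed to compound for 48 h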)
# Conditions: measured here: cell count, toxicity, at 2 µM, reporter expression induced with tamoxifen
row,SMILES,normalized cell count
1,COc1cccc(OC)c1C(=O)Nc1cc(C)nn1-c1nc2ccccc2[nH]1,106%
2,O=C(Nn1c(-c2ccc(Br)cc2)nc2ccccc2c1=O)c1cccnc1,85%
3,CCOc1ccc(N(Cc2ccccc2F)C2=NC3CS(=O)(=O)CC3S2)cc1 (configuration not stated),57.1%
4,COc1ccc(CNC(=O)C2(c3ccc(Cl)cc3)CC2)cc1,99.4%
5,CC(C(=O)Nc1cc([N+](=O)[O-])ccc1Cl)N1CCN(c2ccc(O)cc2)CC1 (configuration not stated),127%
6,Clc1ccc(OCCSc2ncccn2)cc1,115%
7,CCCCn1c(N)c(NCCC(C)C)c(=O)[nH]c1=O,83.7%
8,CN(C)c1cccc(C(=O)OCC(=O)Nc2ccccc2Cl)c1,164%
9,CCOC(=O)c1c(C)nc(-c2ccccc2)nc1NC(=O)CC,75.9%
10,Cc1ccccc1NC(=S)c1nc2ccccc2[nH]1,86.7%
11,O=C(NCc1ccco1)c1cc2ccccc2c(=O)o1,71%
12,O=C(CN1CCN(Cc2ccccc2F)C1=O)NC1CCCC1,93.1%
13,C=CCNc1nnc(Sc2ncccc2[N+](=O)[O-])s1,45.3%
14,COc1ccc(Cn2c(C)nnc2-c2cnn(C)c2N)cc1OC,72%
15,O=C(Nc1nnc(COc2ccc(Cl)cc2)s1)c1cccs1,104%
16,Cc1cccc(Oc2ccc(Cl)cc2N)c1,84.8%
17,COC(=O)CC1NCCc2cc(OC)c(OC)cc21 (configuration not stated),152%
18,CC1(C)Cn2c(nnc2-c2cccc(O)c2)S1,173%
19,CCOc1ccc2[nH]c3c(N4CCN(c5ccccn5)CC4)ncnc3c2c1,111%
20,COc1cccc(-c2csc3nc[nH]c(=O)c23)c1,108%
21,CCOCCn1c(SC)nc2c1c(=O)[nH]c(=O)n2C,173%
22,CC1=Nn2c(nnc2-c2ccccc2Cl)SC1,82.7%
23,Cc1ccc(Nc2nc(N3CCOCC3)nc(N3CCOCC3)n2)cc1,83.5%
24,COc1ccc(CCc2nc(C)ccc2O)cc1,211%
25,C(=C\c1nc2ccccc2[nH]1)/c1ccccc1,165%
26,COCCCn1cnc2c(c1=O)c1nc3ccccc3nc1n2-c1ccccc1,112%

# Random excerpt: 2 compounds from above
row,SMILES,normalized cell count
18,CC1(C)Cn2c(nnc2-c2cccc(O)c2)S1,173%
22,CC1=Nn2c(nnc2-c2ccccc2Cl)SC1,82.7%

# Part of the list above, bar-delimited:
row | SMILES | normalized cell count
21 | CCOCCn1c(SC)nc2c1c(=O)[nH]c(=O)n2C | 173%
22 | CC1=Nn2c(nnc2-c2ccccc2Cl)SC1 | 82.7%
23 | Cc1ccc(Nc2nc(N3CCOCC3)nc(N3CCOCC3)n2)cc1 | 83.5%
24 | COc1ccc(CCc2nc(C)ccc2O)cc1 | 211%
25 | C(=C\c1nc2ccccc2[nH]1)/c1ccccc1 | 165%

# (cont.)

row,SMILES,normalized cell count
1,Cc1c(CCO)sc[n+]1CC(=O)OCCC12CC3CC(CC(C3)C1)C2,106%
2,COc1ccc(C(c2sc3nc(C)nn3c2O)N2CCC(C(N)=O)CC2)cc1OC (configuration not stated),39.2%
3,Clc1ccc2c(N/N=C/c3ccc(Br)cc3)ccnc2c1,98.1%
4,O=C(C1CCC1)N1CCc2cc(S(=O)(=O)NCc3ccco3)ccc21,56.7%
5,COc1ccc(CSCC(=O)N/N=C/c2ccccc2O)cc1,54.2%
6,COc1cccc(OCCNc2cc(Cl)ccc2[N+](=O)[O-])c1,78.3%
7,Clc1ccc2c(N/N=C/c3cccc(Br)c3)ccnc2c1,203%
8,CN1CCN(c2ccc(C(=O)c3ccccc3)cc2[N+](=O)[O-])CC1,92%
9,CCc1cccc(CC)c1C(O)c1cccnc1 (configuration not stated),114%
10,O=C(NCCCN1CCCC1=O)c1ccc(Cl)c(NS(=O)(=O)c2ccc(F)cc2)c1,162%
11,CCOC(=O)N1CCN(C(=O)CN(c2ccc3c(c2)OCO3)S(C)(=O)=O)CC1,66.2%
12,COc1cc(NC(=O)COC(C)=O)cc(OC)c1OC,77.9%
13,Cc1ccc(-c2nnn(CCC(=O)N3CCCCC3C)n2)cc1 (configuration not stated),71.3%
14,O=C(CN1CCN(c2ccccc2)CC1)Nc1ccccc1C(F)(F)F,42.5%
15,CSc1nc(-c2ccc(Cl)cc2)nn1C(=O)c1ccco1,168%
16,Cc1ccc2c(Cl)c(C)c(N3CCCC3)nc2n1,144%
17,CCSc1nc(N)c2c(C)c(C)sc2n1,139%
18,CCOCCCn1c(=S)[nH]c2ncccc2c1=O,79.3%
19,CCCn1nnc(NC(=O)c2cc(Br)ccc2OC)n1,33.6%
20,O=C(NCc1ccco1)c1cc([N+](=O)[O-])cc([N+](=O)[O-])c1,181%
21,O=C(CCCOc1ccccc1)Nc1cccc([N+](=O)[O-])c1,108%
22,CCOC(=O)CSc1nnc(CNC(=O)c2ccc(S(=O)(=O)N3CCCC3)cc2)n1C,114%
23,O=C(c1cccc(F)c1)n1nnc2ccccc21,42.6%
24,O=C(Nc1ccccc1)c1ccc(S(=O)(=O)N(CCO)CCO)cc1,68.8%
25,Cn1cc([N+](=O)[O-])c(C(=O)N/N=C/c2ccc3c(c2)OCO3)n1,49.9%
26,Cc1ccc(NC(=O)C2CC(=O)n3c(nc4ccccc43)N2)cc1Cl (configuration not stated),96.8%

row,SMILES,normalized cell count
1,COc1cccc(-n2c(SCC(N)=O)nnc2-c2ccncc2)c1,103%
2,CC(C)(CSc1ccccn1)NS(=O)(=O)c1ccc(Cl)cc1,168%
3,CC(=O)Nc1cc2c(cc1C(=O)c1ccc(C)cc1)OCCO2,81.8%
4,O=C(O)c1cnc(-c2ccccc2)nc1Sc1ccccc1,136%
5,COc1cccc2c(=O)cc(C)n(CC(=O)Nc3cccc(C)c3)c12,149%
6,COc1cc2c(cc1OC)/C(=C/c1ccc(Br)cc1)C(=O)OC2,68.3%
7,CCN(CC)c1nc2n(c(=O)n1)CCO2,138%
8,CCOc1ccc(-c2cc(CCCC(=O)NCCc3ccccc3)no2)cc1,104%
9,Cc1ccc(OCCN(C)C)c([N+](=O)[O-])c1,81.2%
10,Cc1nc(=O)c(-c2ccccc2)c(C)n1-c1ccc(O)cc1,29.3%
11,COc1ccc(-n2ncc3c(NCc4ccc5c(c4)OCO5)ncnc32)cc1,90.4%
12,Cc1ccc(-n2nnnc2SCC(N)=O)c(C)c1,94.1%
13,Cc1cnc(NC(=O)Cc2cccs2)s1,98.4%
14,COc1ccc(CN2C(=O)CCC2(C)C(=O)NC2CCCC2)c(OC)c1 (configuration not stated),79.8%
15,Cc1cccc2c1NC(=O)/C2=C\C(=O)c1cccs1,125%
16,O=C(c1ccco1)N1CCN(S(=O)(=O)c2cccs2)CC1,135%
17,Cc1ccc(-c2nn(-c3ccccc3)cc2C2SCC(=O)N2Cc2ccccc2)o1 (configuration not stated),116%
18,COc1ccc(/C=N/NC(=O)CSc2ccccc2)cc1OC,29.9%
19,CCCOc1ccc(C(=O)C(CN2CCCC2)c2ccccc2)cc1 (configuration not stated),68.6%
20,Cn1c(SCC(=O)O)nnc1C1CCCCC1,107%
21,CC1=C(C#N)C(/C=N/OCc2ccc(Cl)cc2)CC(=O)N1 (configuration not stated),85.6%
22,COC(=O)c1ccc(-n2c(C)nc(=O)c(-c3ccccc3)c2C)cc1,55.4%
23,c1ccc2[nH]c(-c3ccnc4ccccc34)nc2c1,73.7%
24,CC1=C(C(=O)Nc2ccccc2)C(c2ccncc2)C(C#N)=C(SCC(=O)NC(C)C)N1 (configuration not stated),145%
25,CCCC(=O)n1nc(-c2cccnc2)nc1N,61.2%
